Results: PubChem BioAssay AID1671190 (National Center for Advancing Translational Sciences (NCATS), 2021)
Hit rate of the full screen: of about 580,000 compounds, about 6,100 (1.1%) were called active. Inconclusive means that the source gave no clear call. Such entries were picked first, then a sample of the others. The call rests on the fitted dose curve; in most records, active means well fitted inhibition curve with a large enough effect; inconclusive means small, poorly fitted or top-dose-only effect, or another doubt; inactive means no such curve, though single readings can be large or run the other way. Where the call is inconclusive, the potency comes from a doubtful curve fit.

Sequences of proteins named here, by UniProt entry; tags and fusion partners are left off. A change or cut given only in a name is not applied to a line headed by its entry.
UniProt P18054: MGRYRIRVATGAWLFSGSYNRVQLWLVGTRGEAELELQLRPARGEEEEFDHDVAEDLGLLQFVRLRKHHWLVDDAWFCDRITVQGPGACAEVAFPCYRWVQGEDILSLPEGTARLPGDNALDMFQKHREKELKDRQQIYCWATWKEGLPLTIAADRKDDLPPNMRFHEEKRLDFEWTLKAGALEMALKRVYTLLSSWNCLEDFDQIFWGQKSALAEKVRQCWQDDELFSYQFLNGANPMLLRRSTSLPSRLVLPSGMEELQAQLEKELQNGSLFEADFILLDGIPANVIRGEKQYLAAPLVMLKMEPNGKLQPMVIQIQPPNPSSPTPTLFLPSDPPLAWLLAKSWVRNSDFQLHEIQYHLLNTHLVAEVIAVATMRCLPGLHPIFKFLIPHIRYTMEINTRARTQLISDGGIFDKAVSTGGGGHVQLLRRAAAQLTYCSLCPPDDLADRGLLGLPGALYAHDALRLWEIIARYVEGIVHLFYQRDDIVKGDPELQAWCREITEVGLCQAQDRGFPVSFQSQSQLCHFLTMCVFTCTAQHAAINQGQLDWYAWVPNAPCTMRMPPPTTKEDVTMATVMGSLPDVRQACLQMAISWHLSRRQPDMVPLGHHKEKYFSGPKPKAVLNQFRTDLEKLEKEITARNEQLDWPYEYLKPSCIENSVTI

Each molecule was assayed against Polyunsaturated fatty acid lipoxygenase ALOX12 (Homo sapiens) (UniProt P18054) (assay: Primary qHTS assay for inhibitors of human arachidonate 12S-lipoxygenase (ALOX12): Round 2). Details: purified 12hLO, xylenol orange hydroperoxide absorbance; activity change, negative = inhibition: at 108 µM (top of the series) unless noted.
Procedure, shortened: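 Hydroperoxide product was detected by ferrous iron/xylenol orange as the 573 to 405 nm absorbance ratio. Arachidonic acid at 40 uM (final) was turned over for 30 min at room temperature by 150 nM human 12hLO, pH 7.0 Hepes buffer, after 15 min compound preincubation.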
On the % scale 0 is the no-effect control and ±100 the full control effect; potency means the concentration at half of the fitted maximal effect.

SMILES | activity change, negative = inhibition | Potency
O=C(Nc1ccc2[nH]c(=O)[nH]c2c1)c1nn(-c2ccc(F)cc2)c2c1CCCC2 | inactive: -3.57% | –
COc1ccc(-c2csc(NC3CC3)n2)cc1OC | – | inconclusive: 15.8 µM [inhibitor, partial curve, poor fit]
Cc1ccccc1OCCn1cc(/C=C(\C#N)C(=O)NCc2ccco2)c2ccccc21 | inactive: 6.25% | –
N#Cc1nc(C2CC2)oc1N1CCN(C(=O)c2cncc(Br)c2)CC1 | – | inconclusive: 56.2 µM [inhibitor, partial curve, poor fit]
Cc1ccc(CN2CC[C@H](c3nc4ccc(C)cc4[nH]3)C2)cc1 | – | inconclusive: 22.4 µM [inhibitor, full curve, poor fit]
COc1ccc(-c2c(C)oc3cc(OC)ccc23)cc1 | – | inconclusive: 50.1 µM [inhibitor, partial curve, poor fit]
COc1cc(NC(=O)c2ncoc2-c2ccc(OC)c(OC)c2)cc(OC)c1 | – | inconclusive: 39.8 µM [inhibitor, partial curve, poor fit]
COc1ccc(/C=C2\SC(=S)NC2=O)cc1OS(=O)(=O)c1ccc(NC(C)=O)cc1 | – | inconclusive: 39.8 µM [inhibitor, partial curve]
CCOC(=O)c1c(N)sn(-c2ccccc2C)c1=S | – | inconclusive: 89.1 µM [inhibitor, partial curve, poor fit]
CCNCc1ccccc1C(F)(F)F | – | inconclusive: 35.5 µM [inhibitor, partial curve, poor fit]
C/C(=N/Nc1ccc(Cl)cc1)c1cnnc(-c2ccccc2)n1 | – | inconclusive: 126 µM [inhibitor, single point]
O=C(Nc1nc2c(s1)CCC2)C1CC(=O)N(c2n[nH]c3cc(Br)ccc23)C1 (stereo not given) | – | inconclusive: 31.6 µM [inhibitor, single point]
COC(=O)c1ccc(C(=O)OC)c(NC(=O)COc2ccc(C)cc2)c1 | – | inconclusive: 112 µM [inhibitor, single point]
CC(=O)N[C@H](C)c1c(-c2ccc(F)cc2)noc1C(=O)O | inactive: -1.51% [at 176 µM] | –
COc1cccc(CN2CC(C(=O)N3CCCCCC3)CCC2=O)c1 (stereo not given) | – | inconclusive: 7.08 µM [inhibitor, full curve, poor fit]
COC(=O)C1=C(N)OC2=C(C(=O)CC(c3ccccc3)C2)C1c1ccc(C)cc1 (stereo not given) | – | inconclusive: 100 µM [inhibitor, partial curve, poor fit]
Cc1oc(-c2ccccc2)nc1C(=O)NC(C)c1ccc(C(F)(F)F)cc1 (stereo not given) | inactive: 30.4% | –
CC(C)C[C@@H](CN1CCC[C@H]1CN1C(=O)C(=O)NC[C@@H]1Cc1ccc(O)cc1)N1C[C@H](Cc2ccc(O)cc2)N(CC2CCCCC2)C(=O)C1=O | – | inconclusive: 44.7 µM [inhibitor, partial curve, poor fit]
CCOC(=O)/C=C(\C)Sc1cc(O)c2ccccc2c1O | – | inconclusive: 31.6 µM [inhibitor, partial curve]
Clc1ccc(-c2nnc3sc(Cc4cccs4)nn23)cc1 | – | inconclusive: 2.51 µM [inhibitor, single point]
O=S1(=O)CCN(C2CCCCC2)c2c(F)nc(F)c(F)c21 | – | inconclusive: 15.8 µM [inhibitor, full curve, poor fit]
O=S(=O)(Nc1ccon1)c1ccc(Br)cc1 | – | inconclusive: 100 µM [inhibitor, partial curve, poor fit]

SMILES | activity change, negative = inhibition | Potency
Cc1c(C(=O)OCC(=O)NC2CCCCC2)oc2ccccc12 | inactive: 1.48% | –
Cc1ccc(C)c(S(=O)(=O)N2CCCCC2CCNC(=O)C(=O)NCc2ccccc2)c1 (stereo not given) | inactive: -13.6% | –
COc1cccc2c1C(=O)c1c(O)c3c(c(O)c1C2=O)CC(O)(C(C)=NNC(=O)c1ccc(Cl)c(Cl)c1)CC3OC1CC(N)C(O)C(C)O1 (stereo not given) | – | inconclusive: 79.4 µM [inhibitor, partial curve, poor fit]
COc1ccc(CNC(=O)C[C@H]2C[C@H](C(=O)N3CCCCC3)[C@@]3(CCc4ccccc4)c4[nH]c5ccc(Cl)cc5c4CCN3C2=O)cc1OC | – | inconclusive: 158 µM [inhibitor, partial curve, poor fit]
O=C(/C=C/c1c[nH]c2ccccc12)c1ccccc1 | – | inconclusive: 79.4 µM [inhibitor, partial curve, poor fit]
COc1cc2ccccc2cc1C(=O)Nc1nccs1 | inactive: -25.3% | –
CCN(CC)CCNC(=O)c1ccc(Cl)c(S(=O)(=O)Nc2ccccc2OC)c1 | – | inconclusive: 1.58 µM [inhibitor, full curve, poor fit]
CS(=O)(=O)N1CCC(CC(=O)N2CCOCC2)C1 (stereo not given) | inactive: 8.35% | –
O=S(=O)(Nc1cccc(-n2cnnn2)c1)c1ccc(Cl)cc1 | – | inconclusive: 100 µM [inhibitor, partial curve, poor fit]
CN(C)CCCOc1ccc(Cl)cc1Br | – | inconclusive: 0.631 µM [inhibitor, full curve, poor fit]
COc1ccc(C(=O)C2C(c3ccc(-c4ccccc4[N+](=O)[O-])o3)NC(=O)NC2(O)C(F)(F)F)cc1 (stereo not given) | – | inconclusive: 141 µM [inhibitor, partial curve, poor fit]
Cc1cccc(/C=C(\C(=O)O)c2ccc(S(=O)(=O)N3CCCC3)s2)c1 | – | inconclusive: 44.7 µM [inhibitor, partial curve, poor fit]
O=C(Nc1nn[nH]n1)c1ccc(Cl)c(S(=O)(=O)N2CCOCC2)c1 | – | inconclusive: 6.31 µM [inhibitor, full curve, poor fit]
COc1ccc(-n2nc3cc(C)c(NC(=O)c4ccc(Br)o4)cc3n2)cc1 | – | inconclusive: 28.2 µM [inhibitor, single point]
COC(=O)c1cccc(N2C(=O)C(Cl)=C(N3CCOCC3)C2=O)c1 | inactive: -21.9% | –
COc1ccc(-n2nc(C(=O)NCC(=O)NC3CCCCCC3)c3ccccc3c2=O)c(OC)c1 | – | inconclusive: 126 µM [inhibitor, single point]
COc1cc(OC)cc(C(=O)N2CCC3(CC2)NC(=O)N(c2cccc(F)c2)N3)c1 | – | active: 2.82 µM
CN(C)CCCC1(O)c2ccccc2CCc2ccccc21 | – | inconclusive: 56.2 µM [inhibitor, partial curve, poor fit]
CC(C)Sc1nc2c(c(=O)[nH]c(=O)n2C)n1Cc1ccccc1Cl | – | inconclusive: 39.8 µM [inhibitor, partial curve, poor fit]
CC(=O)c1ccc(N2CCN(c3ccc4cc(S(=O)(=O)N5CCCCC5)ccc4n3)CC2)cc1 | – | inconclusive: 79.4 µM [inhibitor, partial curve, poor fit]
CN1CCN(Cc2c(O)ccc3cc(Br)ccc23)CC1 | – | active: 5.62 µM
CC1CCCCN1CCCNC1CCCC1 (stereo not given) | inactive: 1.33% | –

SMILES | activity change, negative = inhibition | Potency
C[C@@H]1CCCCO[C@H](CN(C)C(=O)Nc2ccc(C(F)(F)F)cc2)[C@@H](C)CN([C@H](C)CO)C(=O)c2cc(NC(=O)Nc3ccc4c(c3)OCO4)ccc2O1 | – | inconclusive: 31.6 µM [inhibitor, partial curve]
CNC(C)c1ccccc1F (stereo not given) | inactive: 2.72% [at 12.5 µM] | –
CC1=C(C(=O)N(C)C)CC(CC(=O)NC2CCCC2)C(=O)N1Cc1ccc(F)cc1 (stereo not given) | – | inconclusive: 35.5 µM [inhibitor, partial curve, poor fit]
Cc1oc(-c2ccc(C(=O)Nc3ccc(F)cc3)cc2)nc1COc1ccccc1 | inactive: -12.4% | –
Cc1ccccc1-c1cc(-c2ccccc2O)on1 | – | inconclusive: 20 µM [inhibitor, partial curve, poor fit]
CC(=O)c1[nH]c(C)c(C(C)=O)c1C | – | inconclusive: 50.1 µM [inhibitor, partial curve, poor fit]
COc1cc(OC)cc(C(=O)NCc2n[nH]c(=O)c3ccccc23)c1 | inactive: 24% | –
COc1cc(OC)c2cc(C(=O)Nc3ccccc3)[nH]c2c1OC | inactive: 21% | –
O=C(COc1ccccc1Cl)Nc1ccc(-c2nc3ccccc3s2)cc1 | inactive: -6.48% | –
COc1ccc(OCC(=O)NC(=S)NNC(=O)COc2ccc(Br)cc2Cl)cc1 | – | active: 14.1 µM
CSc1ncnc2c1ncn2CCCNC1CCN(Cc2ccccc2)CC1 | – | inconclusive: 50.1 µM [inhibitor, single point]
O=C(NC(=S)Nc1cccc(Cl)c1Cl)C1CC1 | inactive: 0% | –
Cc1ccc(-c2n[nH]c(=S)n2/N=C/c2cccn2C)cc1 | – | active: 25.1 µM
CCOC(=O)c1c(NC(=O)C2=C(C)NC(=S)NC2c2ccc(C)cc2)sc(C)c1C (stereo not given) | – | active: 17.8 µM
Cc1cccc(C)c1NC(=O)CN1C(=O)COc2ccccc21 | – | inconclusive: 44.7 µM [inhibitor, partial curve, poor fit]
N#CC1=C(N)Oc2n[nH]c(-c3cccnc3)c2C1c1cc(F)ccc1F (stereo not given) | inactive: -13.8% | –
COCC(=O)N1C[C@H]2CON(C)[C@H]2C[C@H]1c1ccc(N2CCCCC2)cc1 | – | inconclusive: 100 µM [inhibitor, single point]
COc1ccc(CCNC(=O)C(=O)NCC(c2ccco2)S(=O)(=O)c2ccc(C)cc2)cc1 (stereo not given) | – | inconclusive: 158 µM [inhibitor, partial curve, poor fit]
O=C(c1ccc(N2CC3CC(C2)[C@H]2CCCC(=O)N2C3)nc1)N1CCC(Cc2ccccc2)CC1 (stereo not given in full) | inactive: 13.8% | –
Fc1cccc(Cc2c(-c3ccccc3)nc3c(Cl)cc(C(F)(F)F)cn23)c1 | – | inconclusive: 79.4 µM [inhibitor, single point]
O=C(O)CCn1cc(C(C(=O)O)N2CCCCC2)c2ccc(Br)cc21 (stereo not given) | – | inconclusive: 44.7 µM [inhibitor, single point]

Ordered by count of non-hydrogen atoms (descending): some entries from above.
SMILES | activity change, negative = inhibition | Potency
CCOC(=O)c1c(NC(=O)C2=C(C)NC(=S)NC2c2ccc(C)cc2)sc(C)c1C (stereo not given) | – | active: 17.8 µM
COCC(=O)N1C[C@H]2CON(C)[C@H]2C[C@H]1c1ccc(N2CCCCC2)cc1 | – | inconclusive: 100 µM [inhibitor, single point]
Cc1cccc(C)c1NC(=O)CN1C(=O)COc2ccccc21 | – | inconclusive: 44.7 µM [inhibitor, partial curve, poor fit]
